The values that follow come from the supplement of paper PMC5949888.

Most values lie at the floor of the assay. Slopes are relative: functional sequences can read slightly below zero.

For this data set, the system named is Saccharomyces cerevisiae PS128 hsf1 delta, HSF1(1-493) fusion. The data set can be described thus: growth estimate (transactivation domain function in HSF1 fusion, heat-shock survival) (a.u. (slope of normalised read count over time)); higher = stronger growth at 37°C, i.e. more transactivation activity. The note with it: library: random library.
For YTVGAWAEMAYNTWQKQSTH, the growth estimate is less than -0.25.

With GGISLFPRGDGHLTRFKIRQ, the growth estimate is less than -0.25.

Turning to SPLQGRGGQSKRPPRITRPV, the growth estimate is less than -0.25.

Regarding TIGSLSRSLLLGASISSCKR, the growth estimate was less than -0.25.

Consider GVACDRISYAPHWCGLRVRI, for which the growth estimate was less than -0.25.

On to YNDRRASRVRQ, for which the growth estimate was less than -0.25.

For the substance VEVR, the growth estimate is less than -0.25.

PGFTVYDRQPNWYLSYTPTA: the growth estimate was less than -0.25.

With LTSTGGG, the growth estimate is less than -0.25.

For the substance FGGYKASQRGLAIRLLRRGG, the growth estimate is less than -0.25.

Turning to VRPTGDRKVRALSATAYDSD, the growth estimate was less than -0.25.

Consider GGVRQFPKARNIVSCLKAK, for which the growth estimate is less than -0.25.

As for LRCGSATTLKITLGP, the growth estimate was less than -0.25.

Regarding AIYRCLSNCVPVHIDLGRHD, the growth estimate is less than -0.25.

For the substance RRD, the growth estimate was less than -0.25.

Consider RIGPRHTPYMGASGISSVGG, for which the growth estimate was less than -0.25.

In the case of ASWSQRTCMWQRPRRCF, the growth estimate is -0.174.

With VRQLCQSATLYRIR, the growth estimate was less than -0.25.

Turning to GTRTDPIRSAAHRLSF, the growth estimate is less than -0.25.

For SHKCQGCVSVKHLEFRSCLV, the growth estimate was less than -0.25.

On to SLLQDVSAVTNKPMATGPLV, for which the growth estimate is less than -0.25.

Consider RCEL, for which the growth estimate was less than -0.25.

Regarding HSAGFQ, the growth estimate was less than -0.25.

As to RNCTTMVSVPC, the growth estimate was less than -0.25.

Regarding RKWILNNATWADTGRYRCRW, the growth estimate was less than -0.25.

Take GGTLNFGAHRTRIRGEVSYE: the growth estimate was less than -0.25.

Turning to SRRVQVDTS, the growth estimate was less than -0.25.

For NLLGCILGQRDGN, the growth estimate was less than -0.25.

Turning to ICPRYVVGGA, the growth estimate is less than -0.25.

Consider KPCVVEA, for which the growth estimate is less than -0.25.

For the substance YLLSFLFVSKHH, the growth estimate was less than -0.25.

With RRLCGTQLAGGTRLEFCSAA, the growth estimate is less than -0.25.

LGLE: the growth estimate is less than -0.25.

Turning to VSTRPLAKYPHTREELGIVA, the growth estimate is less than -0.25.

In the case of SRVALGGMAGVAKGTF, the growth estimate was less than -0.25.

On to RHYRFMC, for which the growth estimate is less than -0.25.

On to RSLLAQVRRHCRWCQEYRRL, for which the growth estimate is less than -0.25.

With KINYSSLLDNPGSMFKLLER, the growth estimate was less than -0.25.

As for WSENAVGSHYSQEDATTRTI, the growth estimate is less than -0.25.

Consider RNAG, for which the growth estimate is -0.0399.

Turning to VYEPKLRTTSIGEGAVGKMV, the growth estimate is less than -0.25.

On to RTSN, for which the growth estimate is less than -0.25.

On to LSVKWEGIERLGGKR, for which the growth estimate is less than -0.25.

Consider RVFRGKWAIGEP, for which the growth estimate is less than -0.25.

With RQLIR, the growth estimate was less than -0.25.

In the case of RKDAYLST, the growth estimate is less than -0.25.

In the case of YRNLIVRQVRILTRGPLRDL, the growth estimate was less than -0.25.

Turning to LSIKYEPVSLSKGFSAVERG, the growth estimate was -0.228.

In the case of AARSFGHRKLDTTVSGKGLV, the growth estimate was less than -0.25.

Consider TRPN, for which the growth estimate is less than -0.25.

In the case of IDRTG, the growth estimate is less than -0.25.

Consider GAVIDLLQPGGNATVALEIF, for which the growth estimate was less than -0.25.

In the case of TRLNVSIVPGPLFGGRVLRA, the growth estimate is less than -0.25.

As to RIPRG, the growth estimate was less than -0.25.

As to SMVGCWAAIRKS, the growth estimate is less than -0.25.

For GSFATSAKRARQQASLNRIL, the growth estimate was less than -0.25.

As to IGIEP, the growth estimate was less than -0.253.

Regarding FSCERPQTQLVTFI, the growth estimate is less than -0.25.

In the case of FVH, the growth estimate was less than -0.25.

Regarding VVAKILCSTPGEILTVGRVR, the growth estimate was less than -0.25.

In the case of QGI, the growth estimate is less than -0.25.

As to LGVNFVSHEVGAGAAARPYH, the growth estimate was less than -0.25.

For GCSMSVQFNTLYVDQQLNLG, the growth estimate is less than -0.25.

With AYLRRFEAAFNHHPRWTSFI, the growth estimate was less than -0.25.

Regarding AISERETDSILYVSEVLMPA, the growth estimate was less than -0.25.

Turning to PYSIDVVPGITSQPPMKAPF, the growth estimate is less than -0.25.

Turning to VGCHYGQKPYLSNIERRQGV, the growth estimate is less than -0.25.

As to TPRTCTSRGIPLYPVPVMVP, the growth estimate is less than -0.25.

In the case of LVSVARYS, the growth estimate is less than -0.25.

On to WSIAEHAIR, for which the growth estimate was less than -0.25.

For GLDCSEYTVFRERGAPGGFR, the growth estimate is less than -0.25.

As for FGYPRSWARLRVLHGLPMDS, the growth estimate was less than -0.25.

With LWGNRVGRPAQHREGLGIGG, the growth estimate is less than -0.25.

For the substance QNTSILNYCA, the growth estimate is less than -0.25.

YYVRRLHCCTDTPLSGSDH: the growth estimate is less than -0.25.

For NEAVPLIPLNCILGI, the growth estimate was less than -0.25.

As to PSKGLG, the growth estimate was less than -0.25.

As for PGTGGYFGAAVPEQASTLWC, the growth estimate is less than -0.25.

As for VRRKVNHRLASQFIY, the growth estimate is less than -0.25.

Consider GALK, for which the growth estimate is less than -0.25.

RSRRMRQCMGDLCGWASNEG: the growth estimate is less than -0.25.

Take PLGIAIYSQLQCLWYTEARS: the growth estimate was less than -0.25.

As to GNSGKLGVWGVVYQPSTLFT, the growth estimate was less than -0.25.

For the substance SDETETPRSNNC, the growth estimate was less than -0.25.

LLIALDHERNKSSRVLCNWL: the growth estimate is less than -0.25.

QYREKHNIQAR: the growth estimate is less than -0.25.

Turning to GSVDPQWSTSAGDLLAIIC, the growth estimate was less than -0.25.

For QPKPWGLPHDKFKIVIVMRR, the growth estimate was less than -0.25.

In the case of QFNVM, the growth estimate was less than -0.25.

As for LCLGSGGKENKMTIPWNQTT, the growth estimate is less than -0.25.

As for VGVSPGEARQQGCFVVPRSA, the growth estimate is less than -0.25.

HDGTRHGQQVHAVRHINPPR: the growth estimate is less than -0.25.

As for NQDPYAIIAAHAIAWKRTG, the growth estimate is -0.245.

As to KNHKQLD, the growth estimate was less than -0.25.

As for GKMKELHPGS, the growth estimate was less than -0.25.

For RNRLPVG, the growth estimate is less than -0.25.

Consider DKGN, for which the growth estimate is 0.0801.

In the case of ATNNVRSRPSRVE, the growth estimate is less than -0.25.

Regarding PFITCKIWWVHWCPTLSSRS, the growth estimate was less than -0.25.

As for QRVTALDLYFAFLLPKRAVP, the growth estimate was less than -0.25.

For TSDVVRPQTLKSGCNRDLEV, the growth estimate is less than -0.25.

LYRL: the growth estimate was -0.229.

As to VQSTILGRLFGLGAPSMGVG, the growth estimate was less than -0.25.

With WVSVRIGIICGAFDFWRSGA, the growth estimate was less than -0.25.

On to RNMFIDAEGPAKSRTSHSSL, for which the growth estimate was less than -0.25.

Turning to GGAELRSPQRGQMGPGGTPP, the growth estimate is less than -0.25.

For SLKFLVFPR, the growth estimate is less than -0.25.

PVRPG: the growth estimate was less than -0.25.

As for VVLDSCSTDDNWGPADEV, the growth estimate is less than -0.25.

Turning to SLCQTLT, the growth estimate was less than -0.25.

TASSAVRVVLILA: the growth estimate was less than -0.25.

For SSGVSKVRLYRISLNVRLNG, the growth estimate is less than -0.25.

VSEDRFSAQFGSEK: the growth estimate was less than -0.25.

For YRLV, the growth estimate was less than -0.25.

On to GNFESLAVSDRSRVVPPSRP, for which the growth estimate is less than -0.25.
